Data as given in PMC7588011, “Engineering Stem Cell Factor Ligands with Different c-Kit Agonistic Potencies” (Molecules, 2020).
Results are given in words; binding and its absence hold for the method and conditions named. Some entries that bind do so weakly or less than the wild type. Values belong to the molecule of their own block, whether it stands above or below them.

Legend:
[1] = target: wild-type stem cell factor, soluble, non-glycosylated (UniProt P21583); test: dynamic light scattering; purified proteins in PBS, 0.3-0.5 mg/mL, 25 °C; hydrodynamic radius; monomer to dimer; both purified
[2] = target: yeast-surface displayed SCFWT (UniProt P21583); test: flow cytometry on cells; homo-dimerization: purified soluble SCF protein (62.5-500 nM) on yeast displaying the same SCF protein, 1% PBSA, 2 h, 4 °C; detected with APC anti-Flag; normalized to SCFWT at 500 nM; only the binder purified
[3] = target: SCF_(M,K91E), soluble (UniProt P21583); test: dynamic light scattering; purified proteins in PBS, 0.3-0.5 mg/mL, 25 °C; hydrodynamic radius; monomer to dimer; both purified
[4] = target: SCF_(M,K91E,L98R), soluble (UniProt P21583); test: as above
[5] = target: yeast-surface displayed SCF_(M,K91E,L98R) (UniProt P21583); test: flow cytometry on cells; homo-dimerization: purified soluble SCF protein (62.5-500 nM) on yeast displaying the same SCF protein, 1% PBSA, 2 h, 4 °C; detected with APC anti-Flag; normalized to SCFWT at 500 nM; only the binder purified

- binding [1]: binds
- binding [2]: binds
Molecule: wild-type stem cell factor, soluble, non-glycosylated (from UniProt P21583 26-214) (ligand)

- binding [3]: no binding (tested: 0.3–0.5 mg/mL)
B1: SCF_(M,K91E), soluble (ligand, UniProt P21583 26-214, looked up)
chain: EGICRNRVTNNVKDVTKLVANLPKDYMITLKYVPGMDVLPSHCWISEMLVQLSDSLTDLLDKLSNISEGLSNYSIIDKLVNIVDDLVECVEENSSKDLKKSFKSPEPRLFTPEEFFRIFNRSIDAFKDFVVASETSDCVVSSTLSPEKDSRVSVTKPFMLPPVAASSLRNDSSSSNRKAKNPPGDSSLH
notes: stem cell factor (SCF), SCFM (V49L, F63L) with K91E, selected from the first-generation yeast display library; source: purified in non-glycosylated form (production described in the Supplementary Materials)

- binding [4]: binds
- binding [5]: binds
B2: SCF_(M,K91E,L98R), soluble (ligand, UniProt P21583 26-214, looked up)
chain: EGICRNRVTNNVKDVTKLVANLPKDYMITLKYVPGMDVLPSHCWISEMLVQLSDSLTDLLDKLSNISEGLSNYSIIDKLVNIVDDLVECVEENSSKDRKKSFKSPEPRLFTPEEFFRIFNRSIDAFKDFVVASETSDCVVSSTLSPEKDSRVSVTKPFMLPPVAASSLRNDSSSSNRKAKNPPGDSSLH
notes: stem cell factor (SCF), SCFM (V49L, F63L) with K91E and L98R, selected from the second-generation yeast display library; also called SCF_(K91E,L98R); source: purified in non-glycosylated form (production described in the Supplementary Materials)
